Measured values taken from the supplement of paper PMC7666118.
This is one part of the list.

Amino acid sequences for entries named in this document (tags omitted). A change or cut given only in a name is not applied to a line headed by its entry.
UniProt Q96EP5: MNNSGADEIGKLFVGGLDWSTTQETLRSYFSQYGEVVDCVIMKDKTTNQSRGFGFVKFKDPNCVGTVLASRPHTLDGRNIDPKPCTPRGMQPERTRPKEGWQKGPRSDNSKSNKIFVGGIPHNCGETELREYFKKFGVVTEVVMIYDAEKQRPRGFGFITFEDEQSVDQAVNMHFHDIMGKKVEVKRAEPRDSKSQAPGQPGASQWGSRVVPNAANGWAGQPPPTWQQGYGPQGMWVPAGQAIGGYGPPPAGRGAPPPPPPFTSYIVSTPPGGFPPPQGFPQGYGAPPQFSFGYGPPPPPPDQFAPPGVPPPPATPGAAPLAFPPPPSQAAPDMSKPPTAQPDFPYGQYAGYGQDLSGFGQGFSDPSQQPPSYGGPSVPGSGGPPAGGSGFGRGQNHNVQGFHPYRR
UniProt P16989, whole entry: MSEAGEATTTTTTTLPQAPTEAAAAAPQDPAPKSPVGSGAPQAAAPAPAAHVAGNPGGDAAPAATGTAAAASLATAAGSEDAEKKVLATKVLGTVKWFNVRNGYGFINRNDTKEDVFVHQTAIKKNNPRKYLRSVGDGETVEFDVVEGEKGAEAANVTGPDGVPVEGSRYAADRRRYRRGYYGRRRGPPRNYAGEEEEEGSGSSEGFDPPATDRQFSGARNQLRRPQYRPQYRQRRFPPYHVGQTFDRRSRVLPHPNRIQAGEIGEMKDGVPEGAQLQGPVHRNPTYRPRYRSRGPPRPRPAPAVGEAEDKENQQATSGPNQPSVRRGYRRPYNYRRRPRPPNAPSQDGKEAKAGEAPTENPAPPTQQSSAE
UniProt Q9NR30: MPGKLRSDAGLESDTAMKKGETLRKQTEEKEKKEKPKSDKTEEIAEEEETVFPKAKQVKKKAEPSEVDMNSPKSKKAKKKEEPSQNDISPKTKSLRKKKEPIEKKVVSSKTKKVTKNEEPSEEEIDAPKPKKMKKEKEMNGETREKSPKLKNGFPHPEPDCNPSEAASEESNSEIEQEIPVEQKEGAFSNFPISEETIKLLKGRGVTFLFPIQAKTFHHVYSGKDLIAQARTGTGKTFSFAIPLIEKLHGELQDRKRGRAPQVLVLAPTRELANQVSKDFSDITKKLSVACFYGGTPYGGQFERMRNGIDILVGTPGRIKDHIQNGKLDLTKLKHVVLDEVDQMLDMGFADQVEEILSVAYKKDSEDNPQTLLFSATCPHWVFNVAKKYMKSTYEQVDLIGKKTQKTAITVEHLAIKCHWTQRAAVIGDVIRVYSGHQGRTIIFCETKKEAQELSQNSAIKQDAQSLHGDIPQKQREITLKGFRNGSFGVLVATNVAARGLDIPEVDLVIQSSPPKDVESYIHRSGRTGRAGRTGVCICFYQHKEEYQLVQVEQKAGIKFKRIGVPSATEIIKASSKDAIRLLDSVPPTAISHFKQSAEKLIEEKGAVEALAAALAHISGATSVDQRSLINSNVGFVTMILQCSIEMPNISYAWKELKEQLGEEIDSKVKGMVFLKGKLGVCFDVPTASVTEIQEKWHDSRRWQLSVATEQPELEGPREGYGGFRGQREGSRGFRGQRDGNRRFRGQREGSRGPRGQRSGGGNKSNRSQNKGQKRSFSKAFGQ
UniProt Q8IZD4: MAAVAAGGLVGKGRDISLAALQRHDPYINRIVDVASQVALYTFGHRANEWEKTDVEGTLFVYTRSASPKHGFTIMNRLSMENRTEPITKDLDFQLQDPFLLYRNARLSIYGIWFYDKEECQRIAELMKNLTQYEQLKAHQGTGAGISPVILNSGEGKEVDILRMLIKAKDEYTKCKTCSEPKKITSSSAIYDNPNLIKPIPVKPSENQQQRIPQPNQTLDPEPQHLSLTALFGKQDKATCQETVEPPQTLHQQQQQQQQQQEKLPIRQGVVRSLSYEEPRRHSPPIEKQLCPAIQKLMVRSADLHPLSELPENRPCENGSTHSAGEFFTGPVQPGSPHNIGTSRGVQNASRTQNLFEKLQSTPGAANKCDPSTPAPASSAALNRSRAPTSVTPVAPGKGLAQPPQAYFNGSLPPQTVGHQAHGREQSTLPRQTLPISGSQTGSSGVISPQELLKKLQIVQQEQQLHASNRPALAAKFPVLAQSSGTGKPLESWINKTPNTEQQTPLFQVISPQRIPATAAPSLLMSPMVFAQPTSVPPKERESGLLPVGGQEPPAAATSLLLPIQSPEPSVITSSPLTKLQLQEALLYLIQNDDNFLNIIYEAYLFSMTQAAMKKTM
UniProt P04080: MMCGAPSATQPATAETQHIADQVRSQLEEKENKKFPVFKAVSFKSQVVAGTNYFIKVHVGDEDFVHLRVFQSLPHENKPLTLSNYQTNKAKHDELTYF
UniProt Q7Z4W1: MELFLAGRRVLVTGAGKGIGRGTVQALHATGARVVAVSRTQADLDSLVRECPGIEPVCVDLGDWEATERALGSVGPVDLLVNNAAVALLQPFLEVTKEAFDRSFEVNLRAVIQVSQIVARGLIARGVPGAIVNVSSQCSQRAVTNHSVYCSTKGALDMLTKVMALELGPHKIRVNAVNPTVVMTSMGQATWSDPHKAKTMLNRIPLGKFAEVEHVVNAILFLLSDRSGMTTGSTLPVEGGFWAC
UniProt Q96HY6: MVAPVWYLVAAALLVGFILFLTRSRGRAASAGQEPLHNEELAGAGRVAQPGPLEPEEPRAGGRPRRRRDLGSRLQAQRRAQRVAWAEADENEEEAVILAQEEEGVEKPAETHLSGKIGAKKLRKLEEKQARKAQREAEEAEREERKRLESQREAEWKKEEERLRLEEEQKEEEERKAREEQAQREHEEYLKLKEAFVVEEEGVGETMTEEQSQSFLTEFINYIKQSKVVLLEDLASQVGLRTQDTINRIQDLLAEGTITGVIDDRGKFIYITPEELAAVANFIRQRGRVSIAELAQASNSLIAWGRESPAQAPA
UniProt P33240: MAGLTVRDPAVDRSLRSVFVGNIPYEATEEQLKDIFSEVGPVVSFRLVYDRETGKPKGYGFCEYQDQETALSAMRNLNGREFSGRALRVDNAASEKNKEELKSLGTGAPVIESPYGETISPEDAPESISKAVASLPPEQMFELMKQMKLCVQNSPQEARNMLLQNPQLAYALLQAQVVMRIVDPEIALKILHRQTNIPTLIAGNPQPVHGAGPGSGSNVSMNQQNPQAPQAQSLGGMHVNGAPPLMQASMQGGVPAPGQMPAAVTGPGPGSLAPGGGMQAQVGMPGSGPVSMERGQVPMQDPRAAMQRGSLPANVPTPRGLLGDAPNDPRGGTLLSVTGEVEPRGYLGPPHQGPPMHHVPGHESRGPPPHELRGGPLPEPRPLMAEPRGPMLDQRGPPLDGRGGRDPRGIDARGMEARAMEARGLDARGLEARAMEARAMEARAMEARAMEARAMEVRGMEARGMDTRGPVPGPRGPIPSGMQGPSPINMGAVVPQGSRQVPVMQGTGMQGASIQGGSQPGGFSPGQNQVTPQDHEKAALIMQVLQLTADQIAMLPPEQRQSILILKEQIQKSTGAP
UniProt Q8WYA6: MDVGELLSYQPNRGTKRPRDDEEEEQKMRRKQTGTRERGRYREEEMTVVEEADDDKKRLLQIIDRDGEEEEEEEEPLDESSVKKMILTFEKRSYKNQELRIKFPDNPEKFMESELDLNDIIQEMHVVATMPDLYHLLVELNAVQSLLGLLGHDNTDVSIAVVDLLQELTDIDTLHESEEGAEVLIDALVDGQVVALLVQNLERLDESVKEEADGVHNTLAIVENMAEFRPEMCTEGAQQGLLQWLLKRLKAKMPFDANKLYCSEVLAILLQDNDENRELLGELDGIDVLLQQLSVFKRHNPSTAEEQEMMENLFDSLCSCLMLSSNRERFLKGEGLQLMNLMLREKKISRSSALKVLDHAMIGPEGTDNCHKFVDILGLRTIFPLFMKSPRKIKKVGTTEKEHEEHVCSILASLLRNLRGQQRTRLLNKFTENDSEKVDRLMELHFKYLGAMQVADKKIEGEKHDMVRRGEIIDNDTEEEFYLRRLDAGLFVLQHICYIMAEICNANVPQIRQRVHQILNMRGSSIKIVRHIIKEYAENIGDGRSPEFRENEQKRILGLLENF
UniProt O76096: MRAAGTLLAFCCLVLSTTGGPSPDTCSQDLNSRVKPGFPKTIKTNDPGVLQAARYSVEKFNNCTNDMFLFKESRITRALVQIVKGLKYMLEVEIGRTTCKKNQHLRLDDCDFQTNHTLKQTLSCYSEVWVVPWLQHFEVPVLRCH
UniProt Q8NHQ9: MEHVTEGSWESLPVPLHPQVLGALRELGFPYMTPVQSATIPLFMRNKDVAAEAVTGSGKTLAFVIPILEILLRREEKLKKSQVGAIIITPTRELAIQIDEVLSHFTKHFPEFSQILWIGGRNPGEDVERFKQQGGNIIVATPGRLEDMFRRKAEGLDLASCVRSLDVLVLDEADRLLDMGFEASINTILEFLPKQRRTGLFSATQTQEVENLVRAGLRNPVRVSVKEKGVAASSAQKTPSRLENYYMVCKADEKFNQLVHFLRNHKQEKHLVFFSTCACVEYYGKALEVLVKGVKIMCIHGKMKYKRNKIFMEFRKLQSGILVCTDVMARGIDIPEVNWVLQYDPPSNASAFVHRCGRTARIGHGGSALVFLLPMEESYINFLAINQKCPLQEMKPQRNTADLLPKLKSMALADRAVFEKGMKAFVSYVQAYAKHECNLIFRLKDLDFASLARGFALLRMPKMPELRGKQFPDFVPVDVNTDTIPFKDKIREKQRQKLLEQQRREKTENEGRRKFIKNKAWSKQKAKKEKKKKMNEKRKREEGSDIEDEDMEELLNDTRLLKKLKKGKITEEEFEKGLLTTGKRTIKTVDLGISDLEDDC
UniProt Q8IYB7: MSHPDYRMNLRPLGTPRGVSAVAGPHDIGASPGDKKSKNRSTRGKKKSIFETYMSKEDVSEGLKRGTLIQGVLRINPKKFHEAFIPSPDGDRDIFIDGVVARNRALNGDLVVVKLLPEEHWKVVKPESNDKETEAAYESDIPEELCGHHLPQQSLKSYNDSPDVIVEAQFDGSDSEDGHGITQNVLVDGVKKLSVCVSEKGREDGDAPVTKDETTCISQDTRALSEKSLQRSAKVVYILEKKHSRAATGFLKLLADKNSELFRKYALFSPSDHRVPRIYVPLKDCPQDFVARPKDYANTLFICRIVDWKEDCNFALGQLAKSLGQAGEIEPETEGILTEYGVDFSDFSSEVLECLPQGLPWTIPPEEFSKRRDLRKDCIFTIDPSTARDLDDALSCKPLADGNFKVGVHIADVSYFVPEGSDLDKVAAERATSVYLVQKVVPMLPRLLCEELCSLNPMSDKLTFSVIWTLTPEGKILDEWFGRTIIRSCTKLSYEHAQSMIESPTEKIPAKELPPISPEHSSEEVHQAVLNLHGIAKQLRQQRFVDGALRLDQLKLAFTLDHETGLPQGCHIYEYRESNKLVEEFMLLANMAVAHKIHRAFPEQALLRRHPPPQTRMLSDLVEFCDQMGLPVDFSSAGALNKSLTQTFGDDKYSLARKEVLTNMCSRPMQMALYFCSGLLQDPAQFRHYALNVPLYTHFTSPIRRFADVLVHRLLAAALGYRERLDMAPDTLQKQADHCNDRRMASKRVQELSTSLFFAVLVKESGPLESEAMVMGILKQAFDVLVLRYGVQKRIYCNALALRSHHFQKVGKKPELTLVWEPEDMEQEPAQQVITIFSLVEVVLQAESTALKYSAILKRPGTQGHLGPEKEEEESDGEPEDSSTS
UniProt O60762: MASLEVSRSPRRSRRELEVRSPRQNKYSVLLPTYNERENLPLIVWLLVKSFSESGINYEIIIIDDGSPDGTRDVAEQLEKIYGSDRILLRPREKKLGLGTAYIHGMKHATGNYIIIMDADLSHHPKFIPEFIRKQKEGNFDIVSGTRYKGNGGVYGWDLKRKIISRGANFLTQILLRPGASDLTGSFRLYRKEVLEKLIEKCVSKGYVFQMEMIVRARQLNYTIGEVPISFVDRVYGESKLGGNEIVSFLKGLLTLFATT
UniProt P00156: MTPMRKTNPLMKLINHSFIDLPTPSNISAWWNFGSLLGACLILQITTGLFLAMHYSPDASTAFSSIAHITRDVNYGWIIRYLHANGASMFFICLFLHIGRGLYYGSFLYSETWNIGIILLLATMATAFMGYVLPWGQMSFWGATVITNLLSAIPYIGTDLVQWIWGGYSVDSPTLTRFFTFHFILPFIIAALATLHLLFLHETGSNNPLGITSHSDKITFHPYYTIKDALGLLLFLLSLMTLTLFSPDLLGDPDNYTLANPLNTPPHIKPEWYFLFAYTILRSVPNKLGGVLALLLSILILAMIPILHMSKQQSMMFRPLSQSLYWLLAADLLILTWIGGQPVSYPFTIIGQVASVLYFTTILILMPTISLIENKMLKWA
UniProt P19784, whole entry, looked up: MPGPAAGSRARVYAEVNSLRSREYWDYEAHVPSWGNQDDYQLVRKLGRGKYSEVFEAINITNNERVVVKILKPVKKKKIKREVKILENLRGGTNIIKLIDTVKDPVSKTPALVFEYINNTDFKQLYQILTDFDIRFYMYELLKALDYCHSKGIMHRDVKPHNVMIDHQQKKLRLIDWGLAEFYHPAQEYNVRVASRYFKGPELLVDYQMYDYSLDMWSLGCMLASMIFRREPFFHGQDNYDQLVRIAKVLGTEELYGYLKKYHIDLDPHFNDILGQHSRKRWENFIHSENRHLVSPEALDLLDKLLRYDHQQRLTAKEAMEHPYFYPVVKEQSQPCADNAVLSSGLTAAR

These targets were tested with COc1ccc(Cn2ccc3cc(C)c(C(=O)NO)cc32)cc1 (assay: dose-dependent thermal stabilisation call (2D-TPP, DLPTP, 10% FDR) (binary (1 = stabilised)); higher = stabilised by the compound). Settings: system: HL-60 intact cells; concentration range 0.04-10 µM.
Protocol: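 2D thermal proteome profiling in intact HL-60 cells treated with BRD-3811 (0, 0.04, 0.29, 2, 10 uM) for 90 min at 37 C, then heated 3 min at one of 12 temperatures (42-63.9 C). Soluble protein was quantified by TMT10 MS. The value is the DLPTP call of the paper: dose-dependent thermal stabilisation over all temperatures at 10% FDR (F-test of a dose-response against a flat model); one experiment, one call per tested protein.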

Target | dose-dependent thermal stabilisation call
DAZAP1 (UniProt Q96EP5) | inactive: 0
DENND1C (UniProt Q8IV53) | inactive: 0
DAAM1 (UniProt Q9Y4D1) | inactive: 0
CSDA (UniProt P16989) | inactive: 0
CUX1 | inactive: 0
DIABLO (UniProt Q9NR28) | inactive: 0
DDX21 (UniProt Q9NR30) | inactive: 0
DHCR7 (UniProt Q9UBM7) | inactive: 0
DOCK5 (UniProt Q9H7D0) | inactive: 0
DCP1B (UniProt Q8IZD4) | inactive: 0
CUL4B (UniProt Q13620) | inactive: 0
DOLPP1 (UniProt Q86YN1) | inactive: 0
CSTB (UniProt P04080) | inactive: 0
DLAT (UniProt P10515) | inactive: 0
DNAJA1 (UniProt P31689) | inactive: 0
DCTN1 (UniProt Q14203) | inactive: 0
DCXR (UniProt Q7Z4W1) | inactive: 0
DIAPH1 (UniProt O60610) | inactive: 0
DEPDC5 (UniProt O75140) | inactive: 0
DAXX (UniProt Q9UER7) | inactive: 0

Quoted from the listing.
DDX21 (UniProt Q9NR30) | dose-dependent thermal stabilisation call: inactive: 0
DIAPH1 (UniProt O60610) | dose-dependent thermal stabilisation call: inactive: 0

Going on with the list:

Target | dose-dependent thermal stabilisation call
CTBP1 (UniProt Q13363) | inactive: 0
CUL4A (UniProt Q13619) | inactive: 0
DDRGK1 (UniProt Q96HY6) | inactive: 0
CSTF2 (UniProt P33240) | inactive: 0
DNAJC13 (UniProt O75165) | inactive: 0
DDX24 (UniProt Q9GZR7) | inactive: 0
DDX49 (UniProt Q9Y6V7) | inactive: 0
CYFIP2 (UniProt Q96F07) | inactive: 0
CTNNBL1 (UniProt Q8WYA6) | inactive: 0
CST7 (UniProt O76096) | inactive: 0
CSNK1E (UniProt P49674) | inactive: 0
DAP (UniProt P51397) | inactive: 0
DDX55 (UniProt Q8NHQ9) | inactive: 0
DIS3L2 (UniProt Q8IYB7) | inactive: 0
DPM1 (UniProt O60762) | inactive: 0
DDX28 (UniProt Q9NUL7) | inactive: 0
DECR1 (UniProt Q16698) | active: 1
CYTB (UniProt P00156) | inactive: 0
CSNK2A2 (UniProt P19784) | inactive: 0
DDA1 (UniProt Q9BW61) | inactive: 0
